From paper doi:10.1101/2023.06.29.546996
Residue numbers refer to the chain shown, from its start. Read-outs that look alike come from different tables or passages of the source. These are yes or no findings as the source states them, for the method shown. For some of these results: In cells and extracts the contact can be indirect. Some binding calls cover weakened binding; strength is not graded here. For some of these results: Tags and fused reporters may be left off the sequences shown.

Amino acid sequences for entries named in this document (tags omitted). Residues count along the entry.
UniProt P34802, residues 52-371: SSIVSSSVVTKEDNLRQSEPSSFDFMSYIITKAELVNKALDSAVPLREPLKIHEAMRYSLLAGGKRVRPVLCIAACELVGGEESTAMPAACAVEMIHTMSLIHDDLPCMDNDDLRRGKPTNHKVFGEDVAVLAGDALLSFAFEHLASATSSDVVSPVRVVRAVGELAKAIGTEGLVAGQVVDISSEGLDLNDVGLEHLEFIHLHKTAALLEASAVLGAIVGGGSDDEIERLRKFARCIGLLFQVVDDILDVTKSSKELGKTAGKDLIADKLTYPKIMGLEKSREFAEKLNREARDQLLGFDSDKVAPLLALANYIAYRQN

Key:
[1] = biological target: T1, PSY-4 (M266I) fused to the C-terminal ubiquitin moiety (Cub) (Arabidopsis thaliana) (UniProt P37271); experiment: two-hybrid
T1 sequence: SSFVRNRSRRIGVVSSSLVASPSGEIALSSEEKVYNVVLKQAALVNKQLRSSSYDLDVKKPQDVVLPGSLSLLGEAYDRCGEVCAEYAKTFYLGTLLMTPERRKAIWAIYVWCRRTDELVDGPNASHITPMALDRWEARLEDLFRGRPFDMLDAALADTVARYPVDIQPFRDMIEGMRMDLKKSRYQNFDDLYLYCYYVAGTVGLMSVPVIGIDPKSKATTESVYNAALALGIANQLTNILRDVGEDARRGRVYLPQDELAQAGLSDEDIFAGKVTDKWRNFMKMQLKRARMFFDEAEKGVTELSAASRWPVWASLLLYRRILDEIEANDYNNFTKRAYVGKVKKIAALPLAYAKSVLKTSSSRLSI

[2] = biological target: T2, wild-type PSY (PHYTOENE SYNTHASE) fused to the C-terminal ubiquitin moiety (Cub) (Arabidopsis thaliana) (UniProt P37271); experiment: two-hybrid
T2 sequence: T1 sequence with I211M

[3] = biological target: T3, PSY-90 (A352T) fused to the C-terminal ubiquitin moiety (Cub) (Arabidopsis thaliana) (UniProt P37271); experiment: two-hybrid
T3 sequence: T1 sequence with I211M, A297T

[4] = biological target: T4, PSY-130 (P178S) fused to the C-terminal ubiquitin moiety (Cub) (Arabidopsis thaliana) (UniProt P37271); experiment: two-hybrid
T4 sequence: T1 sequence with P123S, I211M

[5] = biological target: T1, PSY-4 (M266I) fused to the C-terminal ubiquitin moiety (Cub) (Arabidopsis thaliana); experiment: two-hybrid; remark: listed apart in the source
[6] = biological target: T2, wild-type PSY (PHYTOENE SYNTHASE) fused to the C-terminal ubiquitin moiety (Cub) (Arabidopsis thaliana); experiment: two-hybrid; remark: listed apart in the source
[7] = biological target: T4, PSY-130 (P178S) fused to the C-terminal ubiquitin moiety (Cub) (Arabidopsis thaliana); experiment: two-hybrid; remark: listed apart in the source
[8] = biological target: T5, endogenous PSY-4 (M266I) from ccr2 psy-4 leaves (Arabidopsis thaliana (endogenous in leaves)) (UniProt P37271); experiment: co-IP
T5 sequence: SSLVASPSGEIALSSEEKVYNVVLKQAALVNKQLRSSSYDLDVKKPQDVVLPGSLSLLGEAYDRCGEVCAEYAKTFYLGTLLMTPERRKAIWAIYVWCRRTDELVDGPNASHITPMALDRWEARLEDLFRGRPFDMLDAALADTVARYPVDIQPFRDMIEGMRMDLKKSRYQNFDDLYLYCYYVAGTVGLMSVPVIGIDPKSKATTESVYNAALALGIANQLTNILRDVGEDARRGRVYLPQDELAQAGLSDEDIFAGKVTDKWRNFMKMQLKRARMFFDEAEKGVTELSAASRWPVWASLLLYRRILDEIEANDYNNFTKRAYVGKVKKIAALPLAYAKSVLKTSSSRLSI

[9] = biological target: T6, endogenous PSY (PHYTOENE SYNTHASE) of wild-type sequence from Arabidopsis leaves (Arabidopsis thaliana (endogenous in leaves)) (UniProt P37271); experiment: co-IP
T6 sequence: T5 sequence with I196M

[10] = biological target: T7, endogenous PSY-130 (P178S) from ccr2 psy-130 leaves (Arabidopsis thaliana (endogenous in leaves)) (UniProt P37271); experiment: co-IP
T7 sequence: T5 sequence with P108S, I196M

Measured: binding

Arabidopsis GGPP SYNTHASE 11 (AtGGPPS11) fused to the N-terminal ubiquitin moiety (Nub) (from UniProt P34802 52-371) (enzyme)
binds: [1] | [2] | [3] | [4]

B1: Arabidopsis ORANGE (AtOR) fused to the N-terminal ubiquitin moiety (Nub) (protein, UniProt Q9FKF4 56-307)
chain: ADKFASGFCIIEGPETVQDFAKMQLQEIQDNIRSRRNKIFLHMEEVRRLRIQQRIKNTELGIINEEQEHELPNFPSFIPFLPPLTAANLKVYYATCFSLIAGIILFGGLLAPTLELKLGIGGTSYADFIQSLHLPMQLSQVDPIVASFSGGAVGVISALMVVEVNNVKQQEHKRCKYCLGTGYLACARCSSTGALVLTEPVSAIAGGNHSLSPPKTERCSNCSGAGKVMCPTCLCTGMAMASEHDPRIDPFD
binds: [5] | [6] | [7]

B2: endogenous Arabidopsis ORANGE (AtOR) from leaves (protein, UniProt Q9FKF4 56-307)
chain: B1 chain
binds: [8] | [9] | [10]
